Results on five molecules are retold here after article doi:10.1101/2024.02.20.581153.

The chains behind the UniProt entries cited, without tags or fusion partners. Where a name states a change or a piece, a line headed by the entry shows the natural chain unless it says otherwise. Residues count along the entry.
UniProt Q8NE86, 51-351, stated change not applied: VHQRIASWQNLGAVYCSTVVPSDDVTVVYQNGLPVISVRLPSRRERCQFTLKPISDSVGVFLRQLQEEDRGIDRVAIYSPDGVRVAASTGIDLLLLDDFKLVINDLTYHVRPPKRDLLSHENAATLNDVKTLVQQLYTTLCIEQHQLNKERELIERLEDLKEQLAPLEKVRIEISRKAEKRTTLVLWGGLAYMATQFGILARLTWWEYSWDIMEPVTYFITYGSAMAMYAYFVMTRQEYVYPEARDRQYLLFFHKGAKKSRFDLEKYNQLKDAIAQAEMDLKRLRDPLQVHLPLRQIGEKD

Like-named read-outs stand apart in the source and are kept apart here. Results are given in words; binding and its absence hold for the method and conditions named. Binding seen in cells or lysates may run through a third protein. Here binding means that the protein was enriched with, or labelled near, the bait; the list need not be complete. For some of these results: Tags and fused reporters may be left off the sequences shown.

What all share (assay): affinity purification with mass spectrometry
The target in test [1] is T1, MCUB (MCU-dominant negative beta subunit) fused at the C-terminus to a StrepII-HA-His6 tag (UniProt Q9NWR8).
T1 sequence: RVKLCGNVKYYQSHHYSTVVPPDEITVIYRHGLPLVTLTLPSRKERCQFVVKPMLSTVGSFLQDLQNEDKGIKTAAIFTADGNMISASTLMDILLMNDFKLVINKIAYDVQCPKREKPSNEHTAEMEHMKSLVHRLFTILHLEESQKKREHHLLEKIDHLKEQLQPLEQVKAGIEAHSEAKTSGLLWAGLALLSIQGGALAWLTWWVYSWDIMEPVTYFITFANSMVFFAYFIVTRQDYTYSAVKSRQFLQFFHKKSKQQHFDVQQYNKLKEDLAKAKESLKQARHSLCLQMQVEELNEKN

In test [2] the target is T1, MCUB (MCU-dominant negative beta subunit) fused at the C-terminus to a StrepII-HA-His6 tag. This is another data set of the same source.
Test [3] has as its target T2, EMRE (Essential MCU Regulator) fused at the C-terminus to a StrepII-HA-His6 tag (UniProt Q9H4I9).
T2 sequence: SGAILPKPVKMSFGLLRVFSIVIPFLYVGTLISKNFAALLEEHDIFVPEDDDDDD

Test [4] deals with T3, MCUB (MCU-dominant negative beta subunit) fused at the C-terminus to a StrepII-HA-His6 tag, Q9NWR8.
T3 chain: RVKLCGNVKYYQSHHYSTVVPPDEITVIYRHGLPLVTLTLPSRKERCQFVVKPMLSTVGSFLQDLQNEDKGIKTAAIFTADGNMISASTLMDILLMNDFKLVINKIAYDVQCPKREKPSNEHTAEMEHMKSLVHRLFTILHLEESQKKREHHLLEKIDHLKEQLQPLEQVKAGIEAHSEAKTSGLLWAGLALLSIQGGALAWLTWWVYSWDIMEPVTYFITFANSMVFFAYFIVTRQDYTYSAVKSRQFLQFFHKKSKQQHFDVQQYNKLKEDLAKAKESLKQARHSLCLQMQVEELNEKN
The following applies: remark: other sources report otherwise.

For test [5], the target named is MCU (Mitochondrial Calcium Uniporter) fused at the C-terminus to a StrepII-HA-His6 tag (UniProt Q8NE86).

Take “MICU1 (Mitochondrial Calcium Uptake 1) (from UniProt Q9BPX6 34-476)”: in test [1], the binding result was “binds”.
As to “MCU (Mitochondrial Calcium Uniporter) (from UniProt Q8NE86 51-351)”, the binding result in test [1] is given as “binds”.

B1: EF-hand domain-containing protein D1 (EFHD1) (protein, UniProt Q9BUP0 1-239)
chain: MASEELACKLERRLRREEAEESGPQLAPLGAPAPEPKPEPEPPARAPTASADAELSAQLSRRLDINEGAARPRRCRVFNPYTEFPEFSRRLIKDLESMFKLYDAGRDGFIDLMELKLMMEKLGAPQTHLGLKSMIKEVDEDFDGKLSFREFLLIFHKAAAGELQEDSGLMALAKLSEIDVALEGVKGAKNFFEAKVQALSSASKFEAELKAEQDERKREEEERRLRQAAFQKLKANFNT
Consider B1, for which the binding entry in test [2] and in test [3] was “binds” throughout.

B2: MICU2, Q8IYU8 23-434 (protein)
chain: AVSRQAVRSPGPLAAAVAGAALAGAGAAWHHSRVSVAARDGSFTVSAQKNVEHGIIYIGKPSLRKQRFMQFSSLEHEGEYYMTPRDFLFSVMFEQMERKTSVKKLTKKDIEDTLSGIQTAGCGSTFFRDLGDKGLISYTEYLFLLTILTKPHSGFHVAFKMLDTDGNEMIEKREFFKLQKIISKQDDLMTVKTNETGYQEAIVKEPEINTTLQMRFFGKRGQRKLHYKEFRRFMENLQTEIQEMEFLQFSKGLSFMRKEDFAEWLLFFTNTENKDIYWKNVREKLSAGESISLDEFKSFCHFTTHLEDFAIAMQMFSLAHRPVRLAEFKRAVKVATGQELSNNILDTVFKIFDLDGDECLSHEEFLGVLKNRMHRGLWVPQHQSIQEYWKCVKKESIKGVKEVWKQAGKGLF
In the case of B2, the binding entry in test [4] is “binds”.

B3: SLC25A25 (protein, UniProt Q6KCM7 1-469)
chain: MLCLCLYVPVIGEAQTEFQYFESKGLPAELKSIFKLSVFIPSQEFSTYRQWKQKIVQAGDKDLDGQLDFEEFVHYLQDHEKKLRLVFKSLDKKNDGRIDAQEIMQSLRDLGVKISEQQAEKILKSMDKNGTMTIDWNEWRDYHLLHPVENIPEIILYWKHSTIFDVGENLTVPDEFTVEERQTGMWWRHLVAGGGAGAVSRTCTAPLDRLKVLMQVHASRSNNMGIVGGFTQMIREGGARSLWRGNGINVLKIAPESAIKFMAYEQIKRLVGSDQETLRIHERLVAGSLAGAIAQSSIYPMEVLKTRMALRKTGQYSGMLDCARRILAREGVAAFYKGYVPNMLGIIPYAGIDLAVYETLKNAWLQHYAVNSADPGVFVLLACGTMSSTCGQLASYPLALVRTRMQAQASIEGAPEVTMSSLFKHILRTEGAFGLYRGLAPNFMKVIPAVSISYVVYENLKITLGVQSR
Regarding B3, the binding result in test [5] and in test [3] was “binds” throughout.
